Laboratory results: PubChem BioAssay AID1259254 (NCATS, 2017)
Aim: 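Gene knock-downs that lead to re-replication, shown by excess G2 DNA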 (primary screen). Cells: human HCT116 colorectal cancer cells. Reagent: single siRNA against human genes. Time to read-out: 3 days. Read-out: 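Imaged Hoechst DNA stain sorts each cell into a cycle phase by DNA amount; per plate, G2 fraction set to 0% for non-targeting and 100% for GMNN siRNA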. Scale: G2 robust z-score and G2 cells, % of GMNN control: higher = more G2 cells, more excess DNA replication. Hit rule: 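Active siRNAs have a G2 robust z of 5 or more median absolute deviations over the median, which in these data means about 38% or higher of GMNN control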.
The whole screen tested about 59,000 reagents; below is a random part of them. In the full data, about 1,550 (2.6%) were called active. 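G2 share is only a proxy for re-replication; each gene was hit by three separate siRNAs, and active genes were retested.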 Reagents against one gene are numbered here. Not all columns of the deposit are shown. No sequences are given here. Not given: the amount of reagent.

MCTP2 #1 scored G2 robust z-score 0.332; G2 cells, % of GMNN control 5.3; inactive. MCTP2 #2 gave G2 robust z-score 2.41; G2 cells, % of GMNN control 19.9; inactive. After knock-down of MCTP2 #3, the record shows G2 robust z-score -0.849; G2 cells, % of GMNN control -3.01; inactive. PPTC7 #1 showed G2 robust z-score -0.119; G2 cells, % of GMNN control 2.13; inactive. After knock-down of PPTC7 #2, the screen gave G2 robust z-score -1.39; G2 cells, % of GMNN control -6.8; inactive. Knock-down of PPTC7 #3 came out at: G2 robust z-score 1.72; G2 cells, % of GMNN control 15; inactive.

CFAP61 #1 gave G2 robust z-score 2.34; G2 cells, % of GMNN control 19.4; inactive. Knock-down of CFAP61 #2 came out at: G2 robust z-score 0.446; G2 cells, % of GMNN control 6.1; inactive. With knock-down of CFAP61 #3 the results were G2 robust z-score 0.129; G2 cells, % of GMNN control 3.87; inactive. Silencing of DUSP10 #1 resulted in: G2 robust z-score 7.09; G2 cells, % of GMNN control 52.9; active. Knock-down of DUSP10 #2 gave: G2 robust z-score 1.91; G2 cells, % of GMNN control 16.4; inactive. DUSP10 #3 scored G2 robust z-score -0.59; G2 cells, % of GMNN control -1.19; inactive.

Quoted from the entries so far, 2 entries:
CFAP61 #2 | G2 robust z-score: 0.446; G2 cells, % of GMNN control: 6.1; Call: inactive
CFAP61 #3 | G2 robust z-score: 0.129; G2 cells, % of GMNN control: 3.87; Call: inactive

Next reagents:
Silencing of TADA2A #1 gave: G2 robust z-score -0.826; G2 cells, % of GMNN control -2.84; inactive. TADA2A #2 gave G2 robust z-score 0.699; G2 cells, % of GMNN control 7.88; inactive. With knock-down of TADA2A #3, the screen gave G2 robust z-score -1.17; G2 cells, % of GMNN control -5.24; inactive. With knock-down of LRBA-AS1 #1 the results were G2 robust z-score -0.889; G2 cells, % of GMNN control -3.29; inactive. Depletion of LRBA-AS1 #2 came out at: G2 robust z-score 0.382; G2 cells, % of GMNN control 5.66; inactive. LRBA-AS1 #3 showed G2 robust z-score 0.165; G2 cells, % of GMNN control 4.13; inactive.

ANAPC5 #1 scored G2 robust z-score 0.348; G2 cells, % of GMNN control 5.42; inactive. With knock-down of ANAPC5 #2, the record shows G2 robust z-score 3.12; G2 cells, % of GMNN control 24.9; inactive. With knock-down of ANAPC5 #3, the record shows G2 robust z-score 4.39; G2 cells, % of GMNN control 33.9; inactive. Knock-down of NFKBID #1 resulted in: G2 robust z-score 0.756; G2 cells, % of GMNN control 8.29; inactive. Depletion of NFKBID #2 resulted in: G2 robust z-score 2.73; G2 cells, % of GMNN control 22.2; inactive. For NFKBID #3, the entry reads G2 robust z-score -0.85; G2 cells, % of GMNN control -3.01; inactive.
